These are yes or no findings as the source states them, for the method shown. In cells and extracts the contact can be indirect. A yes stands for co-enrichment or nearness to the bait. Other partners may have been found.
Target: Flag-YAP1 (UniProt P46937)
Experiment: affinity purification with mass spectrometry; tandem affinity purification of Flag-YAP1 from A2780 cells; mass spectrometry of the YAP1 immunoprecipitates

Amino acid sequences for entries named in this document (tags omitted).
UniProt P46937: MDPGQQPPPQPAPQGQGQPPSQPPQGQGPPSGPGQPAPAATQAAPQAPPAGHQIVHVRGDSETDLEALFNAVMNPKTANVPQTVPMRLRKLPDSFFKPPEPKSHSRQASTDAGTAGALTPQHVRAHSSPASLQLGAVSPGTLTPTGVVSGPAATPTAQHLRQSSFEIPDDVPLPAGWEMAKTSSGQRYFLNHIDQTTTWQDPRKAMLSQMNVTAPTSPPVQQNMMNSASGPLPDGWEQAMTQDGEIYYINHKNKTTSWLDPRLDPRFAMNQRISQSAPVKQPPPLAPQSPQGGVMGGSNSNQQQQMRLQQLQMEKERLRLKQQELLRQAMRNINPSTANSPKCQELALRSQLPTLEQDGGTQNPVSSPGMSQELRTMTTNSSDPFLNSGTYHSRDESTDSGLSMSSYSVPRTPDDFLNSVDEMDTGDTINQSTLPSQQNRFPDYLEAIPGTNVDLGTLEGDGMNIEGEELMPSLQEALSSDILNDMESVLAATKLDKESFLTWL

binding: binds
B1: DUB3 (USP17L2), endogenous (enzyme, UniProt Q6R6M4 1-530)
chain: MEDDSLYLGGEWQFNHFSKLTSSRPDAAFAEIQRTSLPEKSPLSSEARVDLCDDLAPVARQLAPRKKLPLSSRRPAAVGAGLQNMGNTCYENASLQCLTYTPPLANYMLSREHSQTCQRPKCCMLCTMQAHITWALHSPGHVIQPSQALAAGFHRGKQEDAHEFLMFTVDAMKKACLPGHKQVDHHSKDTTLIHQIFGGCWRSQIKCLHCHGISDTFDPYLDIALDIQAAQSVKQALEQLVKPEELNGENAYHCGLCLQRAPASKTLTLHTSAKVLILVLKRFSDVTGNKLAKNVQYPECLDMQPYMSQQNTGPLVYVLYAVLVHAGWSCHDGHYFSYVKAQEGQWYKMDDAKVTACSITSVLSQQAYVLFYIQKSEWERHSESVSRGREPRALGAEDTDRRATQGELKRDHPCLQAPELDERLVERATQESTLDHWKFPQEQNKTKPEFNVRKVEGTLPPNVLVIHQSKYKCGMKNHHPEQQSSLLNLSSTTRTDQESVNTGTLASLQGRTRRSKGKNKHSKRALLVCQ

From paper PMC11743126
